PubChem BioAssay AID1508597 – Cure First, 2020

Assay: 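Genes whose silencing sensitises or protects ovarian cancer cells against rucaparib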 (primary screen)
Cells: human ovarian carcinoma lines grown from tumours: OCI-P5x (papillary serous) and OCI-C5x (clear cell)
Reagent: siRNA pool against human genes, 1.25 pmol siRNA per well
Duration: 72 h or 96 h, depending on the cell culture
Challenge: rucaparib 20 µM (about IC30) or vehicle, present until read-out
Rucaparib or vehicle: Rucaparib
Cell line: OCI-C5x (clear cell)
Measured: 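Luminescent ATP-based viability assay read 72 or 96 h after transfection, depending on culture, given as normalised percent viability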
Scale: viability, normalised: higher = more viable cells remaining
Rule for the call: 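a well counts as a hit if its normalised viability is under 80 percent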
Calls: active = viability under 80%; inactive = viability 80% or more
Shown is an unselected part of the about 2,100 reagents, in one setting of the screen. 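Calls flag viability under 80% in either arm, not effects specific to rucaparib; the reference for percent is not stated.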 Not stated in the record: the 100% reference.

Gene,technical replicate,"viability, normalised (%)",outcome
KTI12,1,48.5,active
KTI12,2,43.1,active
KTI12,3,49.9,active
LMNA,1,98.1,inactive
LMNA,2,79.4,active
LMNA,3,70.4,active
EIF2AK3,1,64.3,active
EIF2AK3,2,47,active
EIF2AK3,3,67.7,active
SYK,1,69.1,active
SYK,2,69.2,active
SYK,3,89.2,inactive
DRD2,1,40.4,active
DRD2,2,32.5,active
DRD2,3,38.3,active
UBR2,1,40.4,active
UBR2,2,55,active
UBR2,3,47.5,active
RBBP4,1,55.8,active
RBBP4,2,35.8,active
RBBP4,3,32.9,active
IRAK2,1,69.3,active
IRAK2,2,62.8,active
IRAK2,3,60.1,active

Entries listed so far whose target name starts with K or k:
Gene,technical replicate,"viability, normalised (%)",outcome
KTI12,1,48.5,active
KTI12,2,43.1,active
KTI12,3,49.9,active
